# This is one part of the list.
# Key:
# Test in all cases: glycan array binding signal (z-score within array); higher = stronger binding
# Details in all cases: glycan notation: IUPAC condensed, linker removed
# [1] = target: Fuc(a1-3)[Gal(b1-4)]GlcNAc(b1-3)Gal(b1-3)[Fuc(a1-4)]GlcNAc
# In short: (§1)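 Glycan array data were curated from 3228 arrays in the Consortium for Functional Glycomics database and kept only where the protein sequence was available. Glycan names were converted to IUPAC-condensed notation, and columns mapping to the same glycan were averaged. The binding signal is a within-array Z-score, averaged across arrays of the same protein sequence at different concentrations or buffers and across linkers. Negative Z-scores can be read as non-binding.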
# [2] = target: Fuc(a1-3)[Gal(b1-4)]GlcNAc(b1-3)Gal(b1-4)[Fuc(a1-3)]GlcNAc
# In short: as §1
# [3] = target: Fuc(a1-3)[Gal(b1-4)]GlcNAc(b1-3)Gal(b1-4)[Fuc(a1-3)]GlcNAc(b1-3)Gal(b1-4)[Fuc(a1-3)]GlcNAc
# In short: as §1
# [4] = target: Fuc(a1-3)[Gal(b1-4)]GlcNAc(b1-3)GalNAc
# In short: as §1
# [5] = target: Fuc(a1-3)[Gal(b1-4)]GlcNAc(b1-6)GalNAc
# In short: as §1
# [6] = target: Fuc(a1-3)[Gal(b1-4)]GlcNAc(b1-6)[Gal(b1-3)GlcNAc(b1-3)]Gal(b1-4)Glc
# In short: as §1
# [7] = target: Fuc(a1-3)[Gal(b1-4)]GlcNAc6S
# In short: as §1
# [8] = target: Fuc(a1-3)[Gal3S(b1-4)]Glc
# In short: as §1
# [9] = target: Fuc(a1-3)[Gal3S(b1-4)]GlcNAc
# In short: as §1
# [10] = target: Fuc(a1-3)[Gal3S(b1-4)]GlcNAc6S
# In short: as §1
# [11] = target: Fuc(a1-3)[GalNAc(b1-4)]GlcNAc
# In short: as §1
# [12] = target: Fuc(a1-3)[GalNAc(b1-4)]GlcNAc6S
# In short: as §1
# [13] = target: Fuc(a1-4)GlcNAc
# In short: as §1
# [14] = target: Fuc(b1-3)GlcNAc
# In short: as §1
# [15] = target: Gal(a1-2)Gal
# In short: as §1
# [16] = target: Gal(a1-3)Gal
# In short: as §1
# [17] = target: Gal(a1-3)Gal(b1-3)GlcNAc
# In short: as §1
# [18] = target: Gal(a1-3)Gal(b1-3)GlcNAc(b1-2)Man
# In short: as §1
# [19] = target: Gal(a1-3)Gal(b1-3)GlcNAc(b1-2)Man(a1-3)[Gal(a1-3)Gal(b1-3)GlcNAc(b1-2)Man(a1-6)]Man(b1-4)GlcNAc(b1-4)GlcNAc
# In short: as §1
# [20] = target: Gal(a1-3)Gal(b1-3)GlcNAc(b1-3)GalNAc
# In short: as §1
# [21] = target: Gal(a1-3)Gal(b1-3)GlcNAc(b1-6)GalNAc
# In short: as §1
# [22] = target: Gal(a1-3)Gal(b1-3)[Fuc(a1-4)]GlcNAc(b1-2)Man(a1-3)[Gal(a1-3)Gal(b1-3)[Fuc(a1-4)]GlcNAc(b1-2)Man(a1-6)]Man(b1-4)GlcNAc(b1-4)GlcNAc
# In short: as §1
# [23] = target: Gal(a1-3)Gal(b1-4)Glc
# In short: as §1
# [24] = target: Gal(a1-3)Gal(b1-4)GlcNAc
# In short: as §1
# [25] = target: Gal(a1-3)Gal(b1-4)GlcNAc(b1-2)Man
# In short: as §1
# [26] = target: Gal(a1-3)Gal(b1-4)GlcNAc(b1-2)Man(a1-3)[Gal(a1-3)Gal(b1-4)GlcNAc(b1-2)Man(a1-6)]Man(b1-4)GlcNAc(b1-4)GlcNAc
# In short: as §1
# [27] = target: Gal(a1-3)Gal(b1-4)GlcNAc(b1-3)GalNAc
# In short: as §1
# [28] = target: Gal(a1-3)Gal(b1-4)GlcNAc(b1-6)GalNAc
# In short: as §1
# [29] = target: Gal(a1-3)Gal(b1-4)[Fuc(a1-3)]GlcNAc
# In short: as §1
# [30] = target: Gal(a1-3)Gal(b1-4)[Fuc(a1-3)]GlcNAc(b1-2)Man(a1-3)[Gal(a1-3)Gal(b1-4)[Fuc(a1-3)]GlcNAc(b1-2)Man(a1-6)]Man(b1-4)GlcNAc(b1-4)GlcNAc
# In short: as §1
# [31] = target: Gal(a1-3)GalNAc
# In short: as §1
# [32] = target: Gal(a1-3)[Gal(a1-4)]Gal(b1-4)GlcNAc
# In short: as §1
# [33] = target: Gal(a1-4)Gal(b1-3)GlcNAc(b1-2)Man(a1-3)[Gal(a1-4)Gal(b1-3)GlcNAc(b1-2)Man(a1-6)]Man(b1-4)GlcNAc(b1-4)GlcNAc
# In short: as §1
# [34] = target: Gal(a1-4)Gal(b1-4)Glc
# In short: as §1
# [35] = target: Gal(a1-4)Gal(b1-4)GlcNAc
# In short: as §1
# [36] = target: Gal(a1-4)Gal(b1-4)GlcNAc(b1-2)Man(a1-3)[Gal(a1-4)Gal(b1-4)GlcNAc(b1-2)Man(a1-6)]Man(b1-4)GlcNAc(b1-4)GlcNAc
# In short: as §1
# [37] = target: Gal(a1-4)Gal(b1-4)GlcNAc(b1-3)Gal(b1-4)Glc
# In short: as §1
# [38] = target: Gal(a1-4)GlcNAc
# In short: as §1
binder,measurement,setting,value
"AT1G80310(18) (Arabidopsis thaliana), Q0WP36 (protein) METTTTPLLPGDRSRCGWLRRRLRLKNPLSSELSGAVGDLGTFIPIVLTLTLVSNLDLSTTLIFTGFYNIATGLLFDIPMPVQPMKSIAAVAVSESPHLTPSQIAAAGASTAATLLLLGATGAMSFLYNIIPLPVVRGVQLSQGLQFAFTAIKYVRFNYDTATLKPSSSPRIWLGLDGLILALAALLFIILSTGSGNDREAEDGDLAETSSNESQSRRRRLRLLSSIPSALIVFALGLVLCFIRDPSIFKDLKFGPSKFHILRISWDDWKIGFLRAAIPQIPLSVLNSVIAVCKLSNDLFDKELSATTVSISVGVMNLIGCWFGAMPVCHGAGGLAGQYRFGARSGLSVIFLGIGKLIVGLVFGNSFVRILSQFPIGILGVLLLFAGIELAMASKDMNSKEDSFIMLVCAAVSMTGSSAALGFGCGVVLYLLLKLRTLDCSSVTLFSRSSDESQVDSEAAPRDV",glycan array binding signal (z-score),[1],1.12
same,glycan array binding signal (z-score),[2],0.576
same,glycan array binding signal (z-score),[3],0.861
same,glycan array binding signal (z-score),[4],1.35
same,glycan array binding signal (z-score),[5],0.051
same,glycan array binding signal (z-score),[6],0.22
same,glycan array binding signal (z-score),[7],-0.865
same,glycan array binding signal (z-score),[8],0.156
same,glycan array binding signal (z-score),[9],-0.281
same,glycan array binding signal (z-score),[10],0.546
same,glycan array binding signal (z-score),[11],-0.082
same,glycan array binding signal (z-score),[12],-0.885
same,glycan array binding signal (z-score),[13],-0.365
same,glycan array binding signal (z-score),[14],-0.095
same,glycan array binding signal (z-score),[15],0.558
same,glycan array binding signal (z-score),[16],3.63
same,glycan array binding signal (z-score),[17],3.82
same,glycan array binding signal (z-score),[18],-0.812
same,glycan array binding signal (z-score),[19],0.244
same,glycan array binding signal (z-score),[20],-0.4
same,glycan array binding signal (z-score),[21],-0.263
same,glycan array binding signal (z-score),[22],-0.515
same,glycan array binding signal (z-score),[23],-0.294
same,glycan array binding signal (z-score),[24],-0.84
same,glycan array binding signal (z-score),[25],-0.662
same,glycan array binding signal (z-score),[26],-0.855
same,glycan array binding signal (z-score),[27],-0.602
same,glycan array binding signal (z-score),[28],-0.875
same,glycan array binding signal (z-score),[29],-0.389
same,glycan array binding signal (z-score),[30],-0.821
same,glycan array binding signal (z-score),[31],0.265
same,glycan array binding signal (z-score),[32],2.13
same,glycan array binding signal (z-score),[33],2.26
same,glycan array binding signal (z-score),[34],-0.347
same,glycan array binding signal (z-score),[35],-0.164
same,glycan array binding signal (z-score),[36],-0.732
same,glycan array binding signal (z-score),[37],0.169
same,glycan array binding signal (z-score),[38],0.748

# As a short view, part of the list above.
binder,measurement,setting,value
"AT1G80310(18) (Arabidopsis thaliana), Q0WP36 (protein) METTTTPLLPGDRSRCGWLRRRLRLKNPLSSELSGAVGDLGTFIPIVLTLTLVSNLDLSTTLIFTGFYNIATGLLFDIPMPVQPMKSIAAVAVSESPHLTPSQIAAAGASTAATLLLLGATGAMSFLYNIIPLPVVRGVQLSQGLQFAFTAIKYVRFNYDTATLKPSSSPRIWLGLDGLILALAALLFIILSTGSGNDREAEDGDLAETSSNESQSRRRRLRLLSSIPSALIVFALGLVLCFIRDPSIFKDLKFGPSKFHILRISWDDWKIGFLRAAIPQIPLSVLNSVIAVCKLSNDLFDKELSATTVSISVGVMNLIGCWFGAMPVCHGAGGLAGQYRFGARSGLSVIFLGIGKLIVGLVFGNSFVRILSQFPIGILGVLLLFAGIELAMASKDMNSKEDSFIMLVCAAVSMTGSSAALGFGCGVVLYLLLKLRTLDCSSVTLFSRSSDESQVDSEAAPRDV",glycan array binding signal (z-score),[24],-0.84
same,glycan array binding signal (z-score),[25],-0.662
same,glycan array binding signal (z-score),[26],-0.855

# Reference: the supplement of paper PMC8728848
